# In PubChem BioAssay AID1117319 (Southern Research Institute, 2015):
# Amino acid sequences for entries named in this document (tags omitted). A change or cut given only in a name is not applied to a line headed by its entry.
# UniProt P69720: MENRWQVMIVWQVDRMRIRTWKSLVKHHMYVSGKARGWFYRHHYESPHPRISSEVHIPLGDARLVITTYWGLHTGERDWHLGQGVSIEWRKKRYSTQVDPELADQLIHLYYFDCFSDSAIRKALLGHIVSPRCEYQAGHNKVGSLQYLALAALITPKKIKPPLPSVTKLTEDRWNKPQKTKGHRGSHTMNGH
# UniProt P69721: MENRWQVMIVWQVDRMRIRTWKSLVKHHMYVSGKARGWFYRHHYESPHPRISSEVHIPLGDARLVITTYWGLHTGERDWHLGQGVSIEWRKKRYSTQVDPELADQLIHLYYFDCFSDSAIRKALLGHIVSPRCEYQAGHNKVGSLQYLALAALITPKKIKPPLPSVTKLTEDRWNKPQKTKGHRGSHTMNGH
# UniProt P69722: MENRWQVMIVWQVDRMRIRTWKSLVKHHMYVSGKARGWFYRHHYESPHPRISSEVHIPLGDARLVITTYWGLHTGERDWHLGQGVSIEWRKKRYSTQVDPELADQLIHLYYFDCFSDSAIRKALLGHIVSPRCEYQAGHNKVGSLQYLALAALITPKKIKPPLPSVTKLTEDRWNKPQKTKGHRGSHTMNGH
# UniProt P69723: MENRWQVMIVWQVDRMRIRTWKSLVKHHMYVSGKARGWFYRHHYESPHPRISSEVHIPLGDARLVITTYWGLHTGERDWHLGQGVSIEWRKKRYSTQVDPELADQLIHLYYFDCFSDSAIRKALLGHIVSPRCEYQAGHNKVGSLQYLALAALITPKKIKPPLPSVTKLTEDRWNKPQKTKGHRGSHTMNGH
# UniProt Q9HC16: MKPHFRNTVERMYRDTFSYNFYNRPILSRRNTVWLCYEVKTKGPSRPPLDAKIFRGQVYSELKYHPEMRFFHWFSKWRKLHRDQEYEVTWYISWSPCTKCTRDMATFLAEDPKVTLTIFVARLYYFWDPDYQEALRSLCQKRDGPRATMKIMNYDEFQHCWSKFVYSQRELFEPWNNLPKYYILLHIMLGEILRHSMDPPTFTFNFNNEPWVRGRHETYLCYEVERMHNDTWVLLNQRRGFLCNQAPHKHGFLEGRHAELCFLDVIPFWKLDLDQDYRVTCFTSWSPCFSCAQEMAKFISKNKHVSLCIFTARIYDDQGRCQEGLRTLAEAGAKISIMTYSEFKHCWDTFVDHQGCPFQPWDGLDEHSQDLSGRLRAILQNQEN
# Out of some 260,000 compounds screened, about 1,500 (0.58%) were called active. The shares of active, inactive and inconclusive entries below differ from those in the screen.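 Rule for the calls: active = inhibition above a set limit at one or more doses, reproduced on every date tested; inconclusive = results disagree between test dates, or hit never tested in dose response; inactive = the rest.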
# Target: Virion infectivity factor (Human immunodeficiency virus type 1 group M subtype B (isolate BH10)) + Virion infectivity factor (Human immunodeficiency virus type 1 group M subtype B (isolate BRU/LAI)) + Virion infectivity factor (Human immunodeficiency virus type 1 group M subtype B (isolate PCV12)) + Virion infectivity factor (Human immunodeficiency virus type 1 group M subtype B (isolate HXB2)) + DNA dC->dU-editing enzyme APOBEC-3G (Homo sapiens) (UniProt P69720+P69721+P69722+P69723+Q9HC16)
# Test: inhibitors of Vif binding to APOBEC3G peptide, primary screen, biochemical, TR-FRET, GST-Vif 1-94, biotin-A3G peptide, dose response retest (AID 1117319);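 note: Vif residues 1-94 fused to GST binding biotinylated APOBEC3G peptide 110-148; 0% = full assay without inhibitor and 100% = GST in place of GST-Vif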
# Settings: active compounds read high
row,SMILES,inhibition
1,O=c1cc(CO)oc(CN2CCCC2)c1O,inconclusive: 33.3%
2,COc1ccccc1C(=O)N(Cc1cccs1)C1CCS(=O)(=O)C1 (stereo not drawn),inconclusive: 34.3%
3,O=[N+]([O-])c1ccc(O)c(-c2nn[nH]n2)c1,inconclusive: 54.1%
4,CCCCCCCCCCCNC(=O)c1ccoc1C,inconclusive: 33.5%
5,COc1ccc(CCN/C=C2/CC(=O)NC2=O)cc1OC,inconclusive: 38.9%
6,N=C1/C(=C/c2ccc(-c3cccc(C(=O)O)c3)o2)C(=O)N=C2SC=C(c3ccccc3)N12,inconclusive: 50.2%
7,S=C(NCc1cccnc1)Nc1ccc(Cl)c(Cl)c1,inconclusive: 61.1%
8,C=CCn1c(SCc2c(C(=O)OC)sc(N)c2C(=O)OC)nnc1-c1ccc(Br)cc1,inconclusive: 37.7%
9,CCOC(=O)N1CCN(c2nc(C)c3c(n2)CCCC3=O)CC1,inconclusive: 38.3%
10,Cc1noc(C)c1S(=O)(=O)Nc1ccc(C(=O)NC2CCCCCC2)cc1,inconclusive: 51.1%
11,CC(C)COP(=O)(OCC(C)C)C(O)c1ccc(N(C)C)cc1 (stereo not drawn),inactive: 12.4%
12,O=C(O)[C@H]1CCCC[C@H]1C(=O)Nc1ccc(Nc2ccccc2)cc1,inconclusive: 41.9%
13,CCOC(=O)c1cnc(SCc2ccccc2)nc1N,inconclusive: 62.9%
14,CCN(CC)c1ccc(/C=N/NC(=O)c2ccc3nc[nH]c3c2)c(O)c1,inconclusive: 40.5%
15,Nc1ccccc1SCc1ccccc1,inactive: -5.9%
16,NS(=O)(=O)c1ccc(N2C(=O)C3C4CC(C(Br)C4Br)C3C2=O)cc1 (stereo not drawn),inconclusive: 59.9%
17,CCC1(C(=O)c2ccccc2)C(c2cccc([N+](=O)[O-])c2)C1(C(=O)OC)C(=O)OC (stereo not drawn),inconclusive: 43.1%
18,COc1cc(/C=N\NC(=O)CNC(=O)c2cccc([N+](=O)[O-])c2)ccc1O,inconclusive: 40.1%
19,O=C(NCC(=O)N1CCCC1C(=O)O)OC1CCCCC1 (stereo not drawn),inconclusive: 47%
20,CCO[C@H]1OC(C(=O)N2CCN(Cc3ccccc3)CC2)=C[C@@H](c2ccc(C(F)(F)F)cc2)[C@@H]1CCCO,inconclusive: 51.6%
21,O=C(Nc1ccc(CN2CCOCC2)cc1)c1cccc(-c2cc3ccccc3oc2=O)c1,inconclusive: 39.3%
22,CC1Cc2ccccc2N1NC(=O)c1ccc(Cl)c(S(N)(=O)=O)c1 (stereo not drawn),inconclusive: 34.1%

row,SMILES,inhibition
1,COC(=O)c1ccc(CN2CCN(Cc3ccc(F)cc3)C(CCO)C2)cc1 (stereo not drawn),inconclusive: 64.5%
2,COc1ccc(CCNC(=O)CCc2nnc(Cc3ccc4c(c3)OCO4)o2)cc1,inconclusive: 49.9%
3,CN1CCN(CCCNC(=O)C2CCN(c3nnc(-n4cccc4)s3)CC2)CC1,inconclusive: 33.8%
4,CCOC(=O)c1ccc(NC(c2ccc(N(C)C)cc2)P(=O)(OC(C)C)OC(C)C)cc1 (stereo not drawn),inconclusive: 44%
5,O=C1N(CCCCN2C(=O)C3(OCCO3)c3ccccc32)c2ccccc2C12OCCO2,inconclusive: 40.4%
6,COc1ccc(Nc2oc(-c3ccccc3)nc2C#N)cc1,inconclusive: 41.7%
7,O=C1c2ccccc2C(=O)N1CCSc1ncn[nH]1,inconclusive: 37.3%
8,CCOC(=O)c1c[nH]n(-c2ccc(C)cc2)c1=O,inconclusive: 47.8%
9,Cc1nc(C(=O)N/N=C/c2[nH]ncc2Br)cs1,inactive: 8.49%
10,CCOCCCNC(=O)C(c1ccc(Cl)cc1)N1CCN(C(=O)c2ccco2)CC1 (stereo not drawn),inconclusive: 43.8%
11,CC(C)CNS(=O)(=O)c1ccc(S(=O)(=O)N2CCN(CCC#N)CC2)cc1,inconclusive: 40.9%
12,COc1ccc(OC)c(Nc2nc3nonc3nc2N2CCCCC2)c1,inconclusive: 59.3%
13,Cc1cc(N2CCCC2)nc(-c2ccccc2O)n1,inconclusive: 36.5%
14,O=C(Cc1cccs1)Nc1nc2c(ccc3ccccc32)s1,inconclusive: 55.6%
15,Cc1cccc(C)c1OCC(O)CNS(=O)(=O)c1ccccc1C(=O)N1CCCCC1 (stereo not drawn),inconclusive: 52.5%
16,CCOC(=O)c1sc(NC(=S)NC(=O)c2ccco2)nc1C,inconclusive: 35.1%
17,Cc1cccc(N2CCN(C(=O)c3ccccc3NC(=O)C3=CSCCO3)CC2C)c1 (stereo not drawn),inactive: 0.87%
18,Cc1nn(C)c(Oc2ccccc2)c1[N+](=O)[O-],inconclusive: 34.1%
19,Cc1cccc(N(CC(=O)NC(C)(C)C)C(=O)CNC(=O)c2cccs2)c1C,inconclusive: 37.6%
20,CCCCCn1c(CNC(=O)COC)nc2ccccc21,inconclusive: 43.5%
21,Cc1cc(C(=O)COc2cccc3cccnc23)c(C)n1C,inconclusive: 48.5%
22,COc1ccc(CCNC2=CC(=O)CC(C)(C)C2)cc1,inconclusive: 63.6%

row,SMILES,inhibition
1,O=C(NCCc1ccccc1)C(c1cccs1)N(C(=O)CCl)c1ccc(Cl)cc1 (stereo not drawn),inconclusive: 52.6%
2,CCCCN(C)S(=O)(=O)c1ccc(C(=O)Nc2nnc(-c3cccs3)o2)cc1,inconclusive: 33.6%
3,CC(=O)Nc1ccc(N2CCN(C(=O)c3cccs3)CC2)cc1,inconclusive: 36.9%
4,COc1ccc(C2(c3ccc(OC)cc3)NC(=O)N(CC(=O)NC3(C#N)CCCC3)C2=O)cc1,inconclusive: 58.8%
5,COc1cc(/C=N/NC(=S)Nc2cccc(Cl)c2C)ccc1OCC(=O)N1CC(C)OC(C)C1 (stereo not drawn),inconclusive: 52.5%
6,O=C(C1CC=CCC1)N1CCN(C(=O)C2CC=CCC2)CC1 (stereo not drawn),inconclusive: 38.1%
7,CC(C)(C)n1nnnc1C(c1cccnc1)N1CCN(C(=O)c2ccco2)CC1 (stereo not drawn),inconclusive: 41.1%
8,CC(C)NC(=O)c1ccc(N2CCOCC2)nc1,inconclusive: 37.9%
9,CCCCCCC(=O)Nc1c(O)c2ccccc2[nH]c1=O,inconclusive: 41.1%
10,CC(C)Sc1nnc(-c2c[nH]c3ccccc23)n1C,inconclusive: 35.9%
11,Cc1ccc(C)c(Nc2nc(-c3ccncc3)nc3ccccc23)c1,inactive: -7.92%
12,CC1C(C(=O)Nc2ccccc2)CCCC1(C)C(=O)O (stereo not drawn),inconclusive: 49.2%
13,Cc1ccc(C(NC(=O)c2ccccc2)C(Cl)Cl)cc1 (stereo not drawn),inconclusive: 40.1%
14,C#CCOCCOCCOCCNc1nc(N2CCN(C(=O)[C@H](CCC(=O)O)n3cc(C(N)CC(C)C)nn3)CC2)nc(N2CCN(C(=O)[C@H](Cc3cc4ccccc4[nH]3)n3cc(C(N)[C@H](C)CC)nn3)CC2)n1 (stereo partly drawn),inconclusive: 38.5%
15,CNc1ccc(Br)cc(C(=O)/C=C/c2cccc(OC)c2)c1=O,inconclusive: 55.9%
16,Cc1nc(N)sc1C(=O)N/N=C/c1cccnc1,inactive: 3.64%
17,COc1ccc(NC2=CC(c3ccc(OC)c(OC)c3)N(c3ccc(OC)cc3)C2=O)cc1 (stereo not drawn),inconclusive: 33.2%
18,COc1ccc(NC2=C3CCCC=C3N(c3ccc(OC)cc3)C2=O)cc1,inconclusive: 36.7%
19,O=c1oc(/C=C/c2ccccc2)nc2sc3c(c12)CCC3,inactive: 70.5%
20,CC(=NCCN1CCNCC1)C1=C(O)CC(C)(C)CC1=O,inconclusive: 55.3%
21,CCn1c(COc2ccc(=O)n(-c3ccccc3)n2)nnc1SC,inconclusive: 33.2%
22,Cc1ccc(S(=O)(=O)N/N=C/c2ccc(O)cc2O)cc1[N+](=O)[O-],inconclusive: 41.5%

row,SMILES,inhibition
1,COc1ccc(COCC(O)CN2CCC(C(N)=O)CC2)cc1 (stereo not drawn),inconclusive: 57.2%
2,Cc1ccccc1N1CCN(C(=O)c2ccccc2NC(=O)c2ccccc2C(=O)O)CC1,inconclusive: 48.8%
3,COc1cc(C2C3=C(CC(c4ccco4)CC3=O)Nc3ccccc3N2C(C)=O)cc(OC)c1OC (stereo not drawn),inconclusive: 42.2%
4,CCc1nnc(NS(=O)(=O)c2ccc(NC(=O)c3cc4ccccc4oc3=O)cc2)s1,inconclusive: 44.8%
5,COc1ccc(Oc2ccccc2/C=N/O)cc1,inconclusive: 45.3%
6,CN(C)S(=O)(=O)c1ccc(NC(=O)C2CCCN(C(=O)c3ccc(Cl)cc3)C2)cc1 (stereo not drawn),inconclusive: 34.6%
7,Nn1c(SCC(=O)NC2CCCCC2)nnc1-c1ccc(Cl)cc1,inconclusive: 60.1%
8,CCOC(=O)NC(=O)CSc1ccc(C)cc1C,inconclusive: 40.2%
9,COCCn1cnnc1SCC(=O)Nc1cc(OC)c([N+](=O)[O-])cc1C,inconclusive: 34.4%
10,CCC(C)(C)NC(=O)C(c1cccn1C)N(C(=O)Cn1nnc2ccccc21)c1ccccc1OC (stereo not drawn),inconclusive: 35.6%
11,CC(C)CCc1noc(CN2CCN(CC(=O)NC(C)C)CC2)n1,inconclusive: 44%
12,Cc1ccc(Cn2c(SCCN3CCOCC3)nc3c2c(=O)n(C)c(=O)n3C)cc1,inconclusive: 48.1%
13,CCOC(=O)C1CCCN(C(=O)CCCn2c(=O)c3cccn3c3cccnc32)C1 (stereo not drawn),inconclusive: 51.3%
14,CCCCC(=O)Nc1ccc(N2CCCC2)cc1,inconclusive: 33.2%
15,O=C(/C=C\Nc1ccccn1)c1ccc(Cl)cc1,inconclusive: 33.1%
16,COc1ccnc(CSC(N)=Nc2ccc(F)cc2)c1,inconclusive: 44.5%
17,CCOC(=O)N1CCN(S(=O)(=O)c2ccc(OCC)cc2)CC1,inconclusive: 37.2%
18,CNC(=O)/C(C#N)=C/c1c(F)cccc1Cl,inconclusive: 43.5%
19,C#CCn1c(=NC(=O)c2ccc(S(=O)(=O)N3CCCc4ccccc43)cc2)sc2cc(S(N)(=O)=O)ccc21,inconclusive: 35.4%
20,COc1ccc2nc(C)cc(Nc3ccccc3OC)c2c1,inactive: -8.19%
21,CCc1nn(C(C)C(=O)NC(C)CCc2ccco2)c(=O)c2cc3occc3n12 (stereo not drawn),inconclusive: 62%
22,CCc1cccc2c(SCC(=O)NCC3CCCO3)nc(-c3ccc(F)cc3)nc12 (stereo not drawn),inactive: -2.63%

# Some of these compounds in order of SMILES length, rising.
row,SMILES,inhibition
9,CCCCCCC(=O)Nc1c(O)c2ccccc2[nH]c1=O,inconclusive: 41.1%
14,O=C(Cc1cccs1)Nc1nc2c(ccc3ccccc32)s1,inconclusive: 55.6%
10,CCC(C)(C)NC(=O)C(c1cccn1C)N(C(=O)Cn1nnc2ccccc21)c1ccccc1OC (stereo not drawn),inconclusive: 35.6%
